The values that follow come from the supplement of paper PMC12067093, “Discovery and optimisation of a covalent ligand for TRIM25 and its application to targeted protein ubiquitination” (Chemical Science, 2025).

Protein sequences, listed by entry. Tags and fused reporters are not part of them. Lines headed by an entry give the natural chain unless they say otherwise; changes in a name come on top.
UniProt Q11201: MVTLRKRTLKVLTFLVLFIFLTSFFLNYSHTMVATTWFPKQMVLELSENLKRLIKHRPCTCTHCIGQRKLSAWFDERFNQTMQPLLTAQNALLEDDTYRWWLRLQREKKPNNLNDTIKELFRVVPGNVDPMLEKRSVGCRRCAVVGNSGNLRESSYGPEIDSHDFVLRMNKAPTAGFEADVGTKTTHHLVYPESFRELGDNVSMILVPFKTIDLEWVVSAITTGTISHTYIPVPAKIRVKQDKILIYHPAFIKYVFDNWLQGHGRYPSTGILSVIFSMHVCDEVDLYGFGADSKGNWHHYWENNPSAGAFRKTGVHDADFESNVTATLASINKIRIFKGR
UniProt Q9Y5B9, whole entry, looked up: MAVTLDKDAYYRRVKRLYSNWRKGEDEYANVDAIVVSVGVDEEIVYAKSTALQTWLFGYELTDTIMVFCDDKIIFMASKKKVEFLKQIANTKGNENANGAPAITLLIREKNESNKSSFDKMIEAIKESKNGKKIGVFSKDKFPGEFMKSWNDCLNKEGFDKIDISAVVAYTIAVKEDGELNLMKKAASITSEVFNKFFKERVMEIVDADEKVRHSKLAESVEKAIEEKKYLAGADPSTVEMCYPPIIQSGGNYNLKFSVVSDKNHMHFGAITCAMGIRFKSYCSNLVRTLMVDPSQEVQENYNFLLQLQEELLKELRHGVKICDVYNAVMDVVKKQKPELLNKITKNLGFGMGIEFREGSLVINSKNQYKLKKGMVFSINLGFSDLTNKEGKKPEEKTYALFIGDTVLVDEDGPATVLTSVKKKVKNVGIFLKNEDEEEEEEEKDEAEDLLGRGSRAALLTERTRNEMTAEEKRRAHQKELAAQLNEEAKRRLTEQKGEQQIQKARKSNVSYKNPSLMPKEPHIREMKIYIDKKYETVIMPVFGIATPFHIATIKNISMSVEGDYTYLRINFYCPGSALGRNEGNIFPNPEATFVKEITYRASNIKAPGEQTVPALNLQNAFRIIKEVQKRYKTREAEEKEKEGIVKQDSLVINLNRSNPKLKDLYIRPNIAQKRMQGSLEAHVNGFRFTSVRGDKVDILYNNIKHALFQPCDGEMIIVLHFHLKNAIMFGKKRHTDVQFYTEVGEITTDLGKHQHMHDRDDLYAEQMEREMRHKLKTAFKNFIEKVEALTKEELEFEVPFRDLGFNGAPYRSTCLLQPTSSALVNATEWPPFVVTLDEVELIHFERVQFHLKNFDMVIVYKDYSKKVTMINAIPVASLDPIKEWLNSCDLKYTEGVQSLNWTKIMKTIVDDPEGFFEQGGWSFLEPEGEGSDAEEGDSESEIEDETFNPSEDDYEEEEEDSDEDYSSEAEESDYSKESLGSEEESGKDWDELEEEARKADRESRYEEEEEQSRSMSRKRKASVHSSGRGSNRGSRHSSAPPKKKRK
UniProt Q13242, whole entry, looked up: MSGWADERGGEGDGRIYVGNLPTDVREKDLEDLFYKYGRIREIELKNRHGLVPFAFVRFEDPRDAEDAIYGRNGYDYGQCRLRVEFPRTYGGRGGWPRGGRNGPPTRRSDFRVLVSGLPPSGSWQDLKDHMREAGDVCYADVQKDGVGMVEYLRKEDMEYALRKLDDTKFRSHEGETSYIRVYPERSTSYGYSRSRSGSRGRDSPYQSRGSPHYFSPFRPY
UniProt Q5VSL9: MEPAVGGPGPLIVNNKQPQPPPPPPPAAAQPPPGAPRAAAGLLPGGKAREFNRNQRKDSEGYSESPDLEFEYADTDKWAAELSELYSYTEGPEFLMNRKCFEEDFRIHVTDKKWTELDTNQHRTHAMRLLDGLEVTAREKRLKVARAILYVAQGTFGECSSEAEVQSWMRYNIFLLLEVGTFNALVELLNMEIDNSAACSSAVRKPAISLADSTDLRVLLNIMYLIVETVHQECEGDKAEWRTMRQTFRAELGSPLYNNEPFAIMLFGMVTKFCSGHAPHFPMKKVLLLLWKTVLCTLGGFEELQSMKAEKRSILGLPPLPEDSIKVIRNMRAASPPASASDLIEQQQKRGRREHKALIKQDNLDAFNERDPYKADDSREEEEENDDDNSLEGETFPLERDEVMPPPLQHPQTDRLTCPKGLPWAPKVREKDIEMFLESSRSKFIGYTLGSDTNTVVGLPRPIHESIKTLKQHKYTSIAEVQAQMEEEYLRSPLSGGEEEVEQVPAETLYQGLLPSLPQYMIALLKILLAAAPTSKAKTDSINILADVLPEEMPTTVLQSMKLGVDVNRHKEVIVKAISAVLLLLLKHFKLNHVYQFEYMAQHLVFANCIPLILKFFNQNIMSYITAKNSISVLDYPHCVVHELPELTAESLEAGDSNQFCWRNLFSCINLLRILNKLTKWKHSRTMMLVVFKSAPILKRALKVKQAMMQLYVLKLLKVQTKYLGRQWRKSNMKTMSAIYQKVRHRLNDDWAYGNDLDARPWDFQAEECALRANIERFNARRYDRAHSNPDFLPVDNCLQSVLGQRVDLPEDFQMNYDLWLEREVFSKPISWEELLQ
UniProt Q658P3: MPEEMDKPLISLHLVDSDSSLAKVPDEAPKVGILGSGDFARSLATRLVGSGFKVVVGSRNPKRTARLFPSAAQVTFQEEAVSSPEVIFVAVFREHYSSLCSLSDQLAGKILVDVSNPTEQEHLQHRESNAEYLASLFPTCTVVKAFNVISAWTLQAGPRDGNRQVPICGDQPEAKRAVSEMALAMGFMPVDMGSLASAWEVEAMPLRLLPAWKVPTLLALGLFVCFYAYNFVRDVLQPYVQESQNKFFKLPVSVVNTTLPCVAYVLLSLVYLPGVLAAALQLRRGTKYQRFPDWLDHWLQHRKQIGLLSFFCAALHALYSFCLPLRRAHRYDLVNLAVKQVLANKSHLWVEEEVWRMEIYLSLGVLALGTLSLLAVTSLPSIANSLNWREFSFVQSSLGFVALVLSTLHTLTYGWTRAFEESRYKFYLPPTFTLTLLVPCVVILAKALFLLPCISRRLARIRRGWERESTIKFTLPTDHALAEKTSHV
UniProt Q9UNE7: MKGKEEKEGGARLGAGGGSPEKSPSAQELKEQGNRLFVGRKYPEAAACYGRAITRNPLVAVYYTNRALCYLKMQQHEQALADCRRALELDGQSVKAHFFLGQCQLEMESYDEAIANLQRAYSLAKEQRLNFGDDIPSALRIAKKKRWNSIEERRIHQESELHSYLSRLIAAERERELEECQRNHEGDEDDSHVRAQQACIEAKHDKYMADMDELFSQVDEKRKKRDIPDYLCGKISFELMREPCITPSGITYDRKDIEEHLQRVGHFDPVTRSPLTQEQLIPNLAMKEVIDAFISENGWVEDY
UniProt Q15527: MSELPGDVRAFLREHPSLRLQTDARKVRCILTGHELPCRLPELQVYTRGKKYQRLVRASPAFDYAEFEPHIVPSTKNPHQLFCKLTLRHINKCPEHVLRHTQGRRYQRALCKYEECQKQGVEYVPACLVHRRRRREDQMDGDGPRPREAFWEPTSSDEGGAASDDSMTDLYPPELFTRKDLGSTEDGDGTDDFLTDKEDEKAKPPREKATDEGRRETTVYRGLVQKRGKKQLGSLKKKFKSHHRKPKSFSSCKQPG
UniProt Q9UH65: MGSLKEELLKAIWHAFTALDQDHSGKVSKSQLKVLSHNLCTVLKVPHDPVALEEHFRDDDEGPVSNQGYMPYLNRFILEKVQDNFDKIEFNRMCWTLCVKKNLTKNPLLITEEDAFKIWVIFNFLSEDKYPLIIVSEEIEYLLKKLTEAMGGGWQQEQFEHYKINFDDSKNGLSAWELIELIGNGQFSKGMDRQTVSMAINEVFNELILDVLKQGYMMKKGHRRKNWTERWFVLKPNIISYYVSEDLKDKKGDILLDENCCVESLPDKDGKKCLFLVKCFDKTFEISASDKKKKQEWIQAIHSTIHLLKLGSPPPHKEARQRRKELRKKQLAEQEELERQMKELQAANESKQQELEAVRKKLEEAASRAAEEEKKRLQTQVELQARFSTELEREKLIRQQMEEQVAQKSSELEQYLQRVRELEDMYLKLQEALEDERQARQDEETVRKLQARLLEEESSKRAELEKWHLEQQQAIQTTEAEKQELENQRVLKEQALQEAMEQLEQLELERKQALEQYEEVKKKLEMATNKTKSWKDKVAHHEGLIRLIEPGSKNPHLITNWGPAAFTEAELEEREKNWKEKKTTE
UniProt O94804: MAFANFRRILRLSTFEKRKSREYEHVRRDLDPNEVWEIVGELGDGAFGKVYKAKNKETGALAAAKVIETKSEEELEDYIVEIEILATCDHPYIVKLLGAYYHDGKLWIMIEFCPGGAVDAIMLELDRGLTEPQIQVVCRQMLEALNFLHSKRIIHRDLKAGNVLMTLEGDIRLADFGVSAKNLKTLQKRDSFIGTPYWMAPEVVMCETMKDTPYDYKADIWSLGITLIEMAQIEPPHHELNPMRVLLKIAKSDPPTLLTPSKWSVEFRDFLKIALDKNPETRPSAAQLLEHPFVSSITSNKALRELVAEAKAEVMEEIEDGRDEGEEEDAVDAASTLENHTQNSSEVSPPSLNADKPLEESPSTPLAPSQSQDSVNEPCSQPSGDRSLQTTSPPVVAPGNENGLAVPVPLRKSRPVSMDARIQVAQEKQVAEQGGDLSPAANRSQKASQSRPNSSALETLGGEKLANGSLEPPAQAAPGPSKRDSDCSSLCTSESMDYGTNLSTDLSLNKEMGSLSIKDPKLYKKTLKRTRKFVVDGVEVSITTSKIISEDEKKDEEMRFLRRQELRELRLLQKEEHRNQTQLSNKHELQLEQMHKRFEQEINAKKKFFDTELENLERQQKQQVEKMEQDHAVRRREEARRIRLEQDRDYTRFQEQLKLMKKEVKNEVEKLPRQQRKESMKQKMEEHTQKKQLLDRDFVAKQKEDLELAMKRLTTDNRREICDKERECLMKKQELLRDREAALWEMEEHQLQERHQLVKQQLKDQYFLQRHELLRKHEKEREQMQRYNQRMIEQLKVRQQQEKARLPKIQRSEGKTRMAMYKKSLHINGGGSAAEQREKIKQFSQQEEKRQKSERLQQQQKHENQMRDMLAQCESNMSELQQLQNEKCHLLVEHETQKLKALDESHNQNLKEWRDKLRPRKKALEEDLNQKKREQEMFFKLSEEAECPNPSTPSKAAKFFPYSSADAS
UniProt Q9NP77: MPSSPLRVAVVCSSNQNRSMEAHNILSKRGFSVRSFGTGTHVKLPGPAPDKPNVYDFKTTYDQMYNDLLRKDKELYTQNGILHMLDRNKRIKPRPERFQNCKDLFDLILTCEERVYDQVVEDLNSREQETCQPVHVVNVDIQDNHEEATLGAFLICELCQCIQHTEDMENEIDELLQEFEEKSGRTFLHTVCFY
UniProt Q13033: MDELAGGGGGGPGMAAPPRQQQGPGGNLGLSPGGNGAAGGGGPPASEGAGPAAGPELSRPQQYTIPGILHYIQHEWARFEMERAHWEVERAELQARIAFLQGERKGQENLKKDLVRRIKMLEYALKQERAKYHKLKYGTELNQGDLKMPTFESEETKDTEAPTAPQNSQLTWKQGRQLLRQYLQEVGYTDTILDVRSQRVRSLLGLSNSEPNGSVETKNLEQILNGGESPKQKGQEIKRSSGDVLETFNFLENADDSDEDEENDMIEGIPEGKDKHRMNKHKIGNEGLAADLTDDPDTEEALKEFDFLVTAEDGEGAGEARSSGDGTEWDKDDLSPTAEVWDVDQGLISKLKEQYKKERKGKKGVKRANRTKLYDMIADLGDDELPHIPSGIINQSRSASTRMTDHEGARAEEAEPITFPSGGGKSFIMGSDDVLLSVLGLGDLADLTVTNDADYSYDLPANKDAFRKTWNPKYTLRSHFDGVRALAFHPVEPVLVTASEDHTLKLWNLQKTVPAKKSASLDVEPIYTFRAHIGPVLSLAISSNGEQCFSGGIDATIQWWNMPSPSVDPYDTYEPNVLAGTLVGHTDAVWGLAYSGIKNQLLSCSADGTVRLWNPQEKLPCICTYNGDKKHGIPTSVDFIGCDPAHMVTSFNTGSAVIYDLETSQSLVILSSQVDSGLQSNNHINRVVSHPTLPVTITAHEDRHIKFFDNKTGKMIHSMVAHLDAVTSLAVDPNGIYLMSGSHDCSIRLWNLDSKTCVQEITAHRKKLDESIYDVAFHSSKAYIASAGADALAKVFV
UniProt Q9Y6E0: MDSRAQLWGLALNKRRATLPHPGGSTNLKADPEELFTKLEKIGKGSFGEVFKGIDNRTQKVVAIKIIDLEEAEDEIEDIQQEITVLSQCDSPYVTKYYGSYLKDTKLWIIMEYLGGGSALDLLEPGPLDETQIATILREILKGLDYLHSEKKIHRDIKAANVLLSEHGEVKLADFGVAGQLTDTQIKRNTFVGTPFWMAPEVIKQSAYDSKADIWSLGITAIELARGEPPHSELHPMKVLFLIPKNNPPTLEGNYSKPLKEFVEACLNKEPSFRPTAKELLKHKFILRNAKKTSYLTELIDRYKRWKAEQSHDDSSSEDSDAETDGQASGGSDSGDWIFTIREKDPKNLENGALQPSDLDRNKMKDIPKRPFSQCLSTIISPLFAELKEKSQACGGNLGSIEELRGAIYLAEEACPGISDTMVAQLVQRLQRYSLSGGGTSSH

The other results are listed elsewhere or left out.
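Also: competitive profiling in live THP-1 cells: cysteine peptides tagged with an iodoacetamide desthiobiotin (IA-DTB) probe, intensity after compound treatment relative to DMSO-treated cells.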

Compound in one assay: Cc1cc(ccc1-c1ccccc1)C(=O)N1CCCN(CC1)C(=O)CCl [compound 10]
In words: probe-labelled cysteine peptide fold change vs DMSO (competition) (log2 fold change); higher = less target engagement (more negative = stronger competition). The conditions noted are these: 10 µM; THP-1; incubation time: 4 h.
Take “ST3GAL1_Q11201_59_HRPCTCTHCIGQR (UniProt Q11201)”: the “probe-labelled cysteine peptide fold change” value was -0.119.
Consider “SSSCA1_O60232_125_EHQLASASELPLGSRPAPQPPVPRPEHCEGAAAGLK (UniProt O60232)”, for which the “probe-labelled cysteine peptide fold change” value turned out to be 0.00536.
In the case of “SUPT16H_Q9Y5B9_323_ICDVYNAVMDVVK (UniProt Q9Y5B9)”, the “probe-labelled cysteine peptide fold change” value is 0.101.
On the same count and under the same terms, in the case of “SRSF9_Q13242_138_EAGDVCYADVQK (UniProt Q13242)” it was 0.0189.
Regarding “STRIP1_Q5VSL9_100_CFEEDFR (UniProt Q5VSL9)”, the “probe-labelled cysteine peptide fold change” value is -0.0939.
As to “SYK_P43405_259_VLTVPCQK (UniProt P43405)”, the “probe-labelled cysteine peptide fold change” value is 0.0686.
Regarding “STEAP3_Q658P3_168_QVPICGDQPEAK (UniProt Q658P3)”, the “probe-labelled cysteine peptide fold change” value was -0.39.
On the same count and under the same terms, in the case of “STUB1_Q9UNE7_244_EPCITPSGITYDRK (UniProt Q9UNE7)” it was 0.0387.
With “SURF2_Q15527_93_CPEHVLR (UniProt Q15527)”, the “probe-labelled cysteine peptide fold change” value came to 0.0015.
As for “SWAP70_Q9UH65_273_CLFLVK (UniProt Q9UH65)”, the “probe-labelled cysteine peptide fold change” value is -0.0562.
The same measure, in the same setting: in the case of “STAMBP_O95630_390_LTDHGLEEISSCR (UniProt O95630)” it was 0.057.
On the same count and under the same terms, in the case of “STK10_O94804_138_GLTEPQIQVVCR (UniProt O94804)” it was 0.307.
Turning to “SSU72_Q9NP77_192_TFLHTVCFY (UniProt Q9NP77)”, the “probe-labelled cysteine peptide fold change” value worked out at 0.151.
For “SRRM2_Q9UQ35_70_CLELEEMMEEQGYEEQQIQEK (UniProt Q9UQ35)”, the “probe-labelled cysteine peptide fold change” value was determined as 0.288.
On to “SRPRB_Q9Y5M8_73_AVLLVGLCDSGK (UniProt Q9Y5M8)”, for which the “probe-labelled cysteine peptide fold change” value is -0.644.
Consider “STARD3_Q14849_317_TVTACQILQR (UniProt Q14849)”, for which the “probe-labelled cysteine peptide fold change” value was determined as 0.0513.
As to “SUZ12_Q15022_494_IDVSINECYDGSYAGNPQDIHR (UniProt Q15022)”, the “probe-labelled cysteine peptide fold change” value amounted to 0.105.
As for “SUPT6H_Q7KZ85_1021_TQLVTMCHMGPK (UniProt Q7KZ85)”, the “probe-labelled cysteine peptide fold change” value is -0.0816.
As for “SYK_P43405_597_MGCPAGCPR (UniProt P43405)”, the “probe-labelled cysteine peptide fold change” value turned out to be 0.0815.

Staying with this assay, now noted: 50 µM; THP-1; incubation time: 4 h.
“SUV39H1_O43463_30_LSCPALGISK (UniProt O43463)”: the “probe-labelled cysteine peptide fold change” value is 0.0691.
Consider “STK19_P49842_354_LGLTYHVHDLIGAQLVDCISTTSGTLLR (UniProt P49842)”, for which the “probe-labelled cysteine peptide fold change” value was 0.203.
On to “STAM_Q92783_76_DPHVAMQALTLLGACVSNCGK (UniProt Q92783)”, for which the “probe-labelled cysteine peptide fold change” value was 0.216.
On to “STRN3_Q13033_604_NQLLSCSADGTVR (UniProt Q13033)”, for which the “probe-labelled cysteine peptide fold change” value is 0.0439.
Regarding “STYX_Q8WUJ0_62_HGITHIICIR (UniProt Q8WUJ0)”, the “probe-labelled cysteine peptide fold change” value was found to be 0.156.
The same measure, in the same setting: in the case of “STK25_O00506_357_SQCLSTLVRPVFGELK (UniProt O00506)” it was 0.00207; in that of “SYMPK_Q92797_686_KYCEDESR (UniProt Q92797)”, 0.412.
As to “STRIP1_Q5VSL9_769_HRLNDDWAYGNDLDARPWDFQAEECALR (UniProt Q5VSL9)”, the “probe-labelled cysteine peptide fold change” value is -0.857.
On to “SWAP70_Q9UH65_261_KGDILLDENCCVESLPDK (UniProt Q9UH65)”, for which the “probe-labelled cysteine peptide fold change” value was -0.128.
The same measure, in the same setting: in the case of “STIP1_P31948_471_CMMAQYNR (UniProt P31948)” it was -0.0499; in that of “SURF2_Q15527_116_YEECQK (UniProt Q15527)”, 0.0154.
Take “STK24_Q9Y6E0_375_RPFSQCLSTIISPLFAELK (UniProt Q9Y6E0)”: the “probe-labelled cysteine peptide fold change” value was -0.378.
On the same count and under the same terms, in the case of “STOML2_Q9UJZ1_167_ESLNASIVDAINQAADCWGIR (UniProt Q9UJZ1)” it was 0.252.
With “STK11IP_Q8N1F8_710_TESPAVCPNCGSDHVVLLAVSR (UniProt Q8N1F8)”, the “probe-labelled cysteine peptide fold change” value was found to be 0.299.
Still for that read-out and setting: in the case of “SUN2_Q9UH99_601_VILQPDVHPGNCWAFQGPQGFAVVR (UniProt Q9UH99)” it was 0.295.
Still for that read-out and setting: in the case of “STX16_O14662_150_ACSEQEGR (UniProt O14662)” it was -0.105; in that of “ST3GAL1_Q11201_59_HRPCTCTHCIGQR (UniProt Q11201)”, -0.101.
For “SSSCA1_O60232_125_EHQLASASELPLGSRPAPQPPVPRPEHCEGAAAGLK (UniProt O60232)”, the “probe-labelled cysteine peptide fold change” value was -0.46.
As to “SUPT16H_Q9Y5B9_323_ICDVYNAVMDVVK (UniProt Q9Y5B9)”, the “probe-labelled cysteine peptide fold change” value worked out at 0.372.
Take “SRSF9_Q13242_138_EAGDVCYADVQK (UniProt Q13242)”: the “probe-labelled cysteine peptide fold change” value is -0.152.
As to “STRIP1_Q5VSL9_100_CFEEDFR (UniProt Q5VSL9)”, the “probe-labelled cysteine peptide fold change” value was -0.0406.
With “SYK_P43405_259_VLTVPCQK (UniProt P43405)”, the “probe-labelled cysteine peptide fold change” value came out at 0.113.
“STEAP3_Q658P3_168_QVPICGDQPEAK (UniProt Q658P3)”: the “probe-labelled cysteine peptide fold change” value is -0.0131.
Take “STUB1_Q9UNE7_244_EPCITPSGITYDRK (UniProt Q9UNE7)”: the “probe-labelled cysteine peptide fold change” value was -0.0972.
Same read-out and setting: in the case of “SURF2_Q15527_93_CPEHVLR (UniProt Q15527)” it was -0.0829.
In the case of “SWAP70_Q9UH65_273_CLFLVK (UniProt Q9UH65)”, the “probe-labelled cysteine peptide fold change” value was -0.234.
